# Test results published in patent publication US12605541B2, “Stabilized anti-cancer cold atmospheric plasma (CAP)-stimulated media and methods for preparing and using same” (The George Washington University, priority 2015, dated 2026).
# For at least one compound, name, drawing or mass did not settle the structure.
# Details: DMEM, CAP for 1 min; FIG. 4
# Experimental: The general research strategy described herein is illustrated in FIG. 1b. I mL of PSM was made by the vertical irradiation on the medium in a well on a 12-well plate. Then, the PSM was transferred to a 1.5 mL centrifuge tube by pipette. The centrifuge tubes were stored in refrigerators with different internal temperatures (8° C. and −25° C.) for 3 days. Additionally, some centrifuge tubes were stored at 22° C., for the investigation of PSM degradation at room temperature. Ultimately, the PSM was either transferred to culture the seeded cancer cells in a 96-well plate or transferred into a black wall 96-well plate to measure for H2O2 concentration. […]
# 50 μL of CAP-stimulated medium or PBS to be analyzed for H2O2 concentration was transferred to a well on a black-wall Coming™ Falcon™ 96-well clear bottom plate in triplicate. Subsequently, according to standard protocols provided by Sigma Aldrich (St. Louis, MO), the H2O2 concentration in the cold plasma-stimulated medium was measured as follows. […] After 30 min of storage at the room temperature, with protecting from light, a Hybrid Technology HI microplate reader (BioTek Instruments, Winooski, VT) was used to measure the fluorescence with an excitation wavelength at 540 nm and an emission wavelength at 590 nm. […] The standard H202 solution was used to prepare the standard H202 concentration-fluorescence curve. […]
smiles,measurement,value
O=S1(=O)OC(c2ccc(O)cc2)(c2ccc(O)cc2)c2ccccc21 [phenol red],effect of the component in the medium on H2O2 generated during the CAP treatment,significantly consumes H2O2
